Two molecules from article PMC11403291 can be followed below.

By UniProt entry, the sequences of proteins in these tests, tags left out.
UniProt P09874: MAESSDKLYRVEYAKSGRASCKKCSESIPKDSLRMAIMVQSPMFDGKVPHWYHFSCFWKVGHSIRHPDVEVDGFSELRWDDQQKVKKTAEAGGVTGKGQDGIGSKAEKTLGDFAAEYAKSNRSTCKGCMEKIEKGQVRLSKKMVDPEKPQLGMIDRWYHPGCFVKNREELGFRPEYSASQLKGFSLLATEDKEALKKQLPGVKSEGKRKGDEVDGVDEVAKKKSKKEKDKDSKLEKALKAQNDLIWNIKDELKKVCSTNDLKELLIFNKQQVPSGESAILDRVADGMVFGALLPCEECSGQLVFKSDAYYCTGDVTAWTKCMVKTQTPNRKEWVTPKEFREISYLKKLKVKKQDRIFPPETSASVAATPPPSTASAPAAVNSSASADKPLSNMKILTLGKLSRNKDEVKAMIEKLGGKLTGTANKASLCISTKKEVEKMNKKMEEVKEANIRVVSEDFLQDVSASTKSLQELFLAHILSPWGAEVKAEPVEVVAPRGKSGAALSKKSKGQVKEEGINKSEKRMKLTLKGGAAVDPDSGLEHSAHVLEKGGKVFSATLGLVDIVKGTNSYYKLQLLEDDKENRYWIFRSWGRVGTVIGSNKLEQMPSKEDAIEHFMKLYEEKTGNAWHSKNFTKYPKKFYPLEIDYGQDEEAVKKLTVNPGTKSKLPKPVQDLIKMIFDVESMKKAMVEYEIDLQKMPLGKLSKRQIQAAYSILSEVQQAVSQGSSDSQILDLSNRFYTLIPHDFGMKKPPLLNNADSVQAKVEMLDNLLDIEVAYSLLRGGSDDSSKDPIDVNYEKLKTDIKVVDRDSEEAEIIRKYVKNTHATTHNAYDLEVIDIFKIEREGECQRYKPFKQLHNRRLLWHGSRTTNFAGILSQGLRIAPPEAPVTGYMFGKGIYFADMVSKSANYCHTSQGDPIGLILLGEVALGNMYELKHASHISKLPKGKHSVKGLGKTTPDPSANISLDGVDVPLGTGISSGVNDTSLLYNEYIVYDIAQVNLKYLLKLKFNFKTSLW
UniProt O95271: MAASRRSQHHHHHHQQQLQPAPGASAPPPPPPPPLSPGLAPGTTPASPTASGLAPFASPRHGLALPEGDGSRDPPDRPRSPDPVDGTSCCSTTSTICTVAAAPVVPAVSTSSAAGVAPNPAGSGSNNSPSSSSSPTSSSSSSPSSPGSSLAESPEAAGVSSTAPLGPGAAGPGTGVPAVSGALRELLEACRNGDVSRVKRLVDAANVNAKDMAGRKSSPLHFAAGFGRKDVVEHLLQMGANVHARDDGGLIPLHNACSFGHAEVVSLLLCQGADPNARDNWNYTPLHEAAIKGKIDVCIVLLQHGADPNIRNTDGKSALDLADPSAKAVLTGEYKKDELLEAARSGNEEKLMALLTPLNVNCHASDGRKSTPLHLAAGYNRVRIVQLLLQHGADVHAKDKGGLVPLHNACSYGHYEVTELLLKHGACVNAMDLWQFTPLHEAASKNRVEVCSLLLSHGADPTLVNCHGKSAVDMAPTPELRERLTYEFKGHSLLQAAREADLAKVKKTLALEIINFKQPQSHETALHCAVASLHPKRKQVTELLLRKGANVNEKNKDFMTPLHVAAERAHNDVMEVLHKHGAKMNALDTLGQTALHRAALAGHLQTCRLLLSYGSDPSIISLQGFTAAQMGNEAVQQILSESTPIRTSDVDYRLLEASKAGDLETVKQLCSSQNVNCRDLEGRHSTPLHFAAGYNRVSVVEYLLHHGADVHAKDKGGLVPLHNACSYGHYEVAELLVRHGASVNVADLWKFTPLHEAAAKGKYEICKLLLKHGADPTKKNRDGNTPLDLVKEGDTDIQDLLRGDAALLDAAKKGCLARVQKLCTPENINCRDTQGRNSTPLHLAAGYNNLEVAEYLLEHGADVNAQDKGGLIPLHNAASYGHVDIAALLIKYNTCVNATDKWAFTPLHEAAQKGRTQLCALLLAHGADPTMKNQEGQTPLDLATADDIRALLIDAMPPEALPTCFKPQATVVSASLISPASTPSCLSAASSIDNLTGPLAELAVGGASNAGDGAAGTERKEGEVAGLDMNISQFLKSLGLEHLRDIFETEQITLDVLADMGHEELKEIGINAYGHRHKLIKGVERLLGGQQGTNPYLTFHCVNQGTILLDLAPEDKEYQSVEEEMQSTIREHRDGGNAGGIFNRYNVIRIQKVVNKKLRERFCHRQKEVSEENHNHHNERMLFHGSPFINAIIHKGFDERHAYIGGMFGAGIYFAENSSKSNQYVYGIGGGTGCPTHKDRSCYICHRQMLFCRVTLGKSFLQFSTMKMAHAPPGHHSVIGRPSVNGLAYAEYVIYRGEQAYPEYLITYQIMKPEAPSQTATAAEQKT

Results are given in words; binding and its absence hold for the method and conditions named. Binding seen in cells or lysates may run through a third protein. A yes stands for co-enrichment or nearness to the bait. Other partners may have been found.

Common to all, as to assay: affinity purification with mass spectrometry
Assay [1] addresses PARP1 (human (endogenous in HEK293, K-562, placenta, HepG2 Princen)) (UniProt P09874).
Assay [2] has as its target tankyrase TNKS (human (endogenous in HEK293, K-562, placenta, HepG2 Princen)) (UniProt O95271).
The target of assay [3] is T1, tankyrase TNKS2 (human (endogenous in HEK293, K-562, placenta, HepG2 Princen)) (UniProt Q9H2K2).
T1 sequence: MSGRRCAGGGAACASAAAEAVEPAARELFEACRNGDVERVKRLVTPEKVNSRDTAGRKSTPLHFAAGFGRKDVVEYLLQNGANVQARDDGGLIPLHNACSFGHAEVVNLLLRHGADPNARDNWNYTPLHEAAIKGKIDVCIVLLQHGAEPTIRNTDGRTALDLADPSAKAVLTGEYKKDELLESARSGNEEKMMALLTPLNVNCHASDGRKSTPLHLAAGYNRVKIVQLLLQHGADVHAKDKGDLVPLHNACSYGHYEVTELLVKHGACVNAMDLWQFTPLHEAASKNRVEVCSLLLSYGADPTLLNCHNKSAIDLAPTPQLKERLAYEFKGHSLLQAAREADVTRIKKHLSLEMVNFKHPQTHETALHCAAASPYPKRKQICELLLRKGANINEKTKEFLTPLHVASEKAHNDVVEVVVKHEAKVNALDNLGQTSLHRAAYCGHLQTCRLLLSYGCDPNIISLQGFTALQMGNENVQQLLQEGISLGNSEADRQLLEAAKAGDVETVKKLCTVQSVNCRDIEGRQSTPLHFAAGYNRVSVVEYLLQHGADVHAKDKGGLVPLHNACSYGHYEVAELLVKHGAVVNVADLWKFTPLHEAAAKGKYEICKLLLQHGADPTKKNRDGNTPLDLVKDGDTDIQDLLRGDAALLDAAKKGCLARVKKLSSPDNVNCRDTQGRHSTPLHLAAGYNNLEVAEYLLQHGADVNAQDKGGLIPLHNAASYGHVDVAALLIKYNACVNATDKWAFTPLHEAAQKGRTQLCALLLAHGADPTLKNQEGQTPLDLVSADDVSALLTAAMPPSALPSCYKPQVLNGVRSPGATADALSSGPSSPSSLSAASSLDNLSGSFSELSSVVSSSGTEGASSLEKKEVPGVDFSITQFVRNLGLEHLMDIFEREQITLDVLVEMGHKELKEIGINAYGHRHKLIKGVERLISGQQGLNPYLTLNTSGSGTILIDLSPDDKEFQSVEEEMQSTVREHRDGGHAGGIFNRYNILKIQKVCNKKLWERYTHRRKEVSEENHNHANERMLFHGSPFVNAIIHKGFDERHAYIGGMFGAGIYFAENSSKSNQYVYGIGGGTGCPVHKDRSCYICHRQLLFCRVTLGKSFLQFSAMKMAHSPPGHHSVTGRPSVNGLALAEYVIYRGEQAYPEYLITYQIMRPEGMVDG

B1: DNA ligase 3 (LIG3) (enzyme, UniProt P49916 43-1009)
chain: LLHGHPLFLRRKPVLSFQGSHLRSRATYLVFLPGLHVGLCSGPCEMAEQRFCVDYAKRGTAGCKKCKEKIVKGVCRIGKVVPNPFSESGGDMKEWYHIKCMFEKLERARATTKKIEDLTELEGWEELEDNEKEQITQHIADLSSKAAGTPKKKAVVQAKLTTTGQVTSPVKGASFVTSTNPRKFSGFSAKPNNSGEAPSSPTPKRSLSSSKCDPRHKDCLLREFRKLCAMVADNPSYNTKTQIIQDFLRKGSAGDGFHGDVYLTVKLLLPGVIKTVYNLNDKQIVKLFSRIFNCNPDDMARDLEQGDVSETIRVFFEQSKSFPPAAKSLLTIQEVDEFLLRLSKLTKEDEQQQALQDIASRCTANDLKCIIRLIKHDLKMNSGAKHVLDALDPNAYEAFKASRNLQDVVERVLHNAQEVEKEPGQRRALSVQASLMTPVQPMLAEACKSVEYAMKKCPNGMFSEIKYDGERVQVHKNGDHFSYFSRSLKPVLPHKVAHFKDYIPQAFPGGHSMILDSEVLLIDNKTGKPLPFGTLGVHKKAAFQDANVCLFVFDCIYFNDVSLMDRPLCERRKFLHDNMVEIPNRIMFSEMKRVTKALDLADMITRVIQEGLEGLVLKDVKGTYEPGKRHWLKVKKDYLNEGAMADTADLVVLGAFYGQGSKGGMMSIFLMGCYDPGSQKWCTVTKCAGGHDDATLARLQNELDMVKISKDPSKIPSWLKVNKIYYPDFIVPDPKKAAVWEITGAEFSKSEAHTADGISIRFPRCTRIRDDKDWKSATNLPQLKELYQLSKEKADFTVVAGDEGSSTTGGSSEENKGPSGSAVSRKAPSKPSASTKKAEGKLSNSNSKDGNMQTAKPSAMKVGEKLATKSSPVKVGEKRKAADETLCQTKVLLDIFTGVRLYLPPSTPDFSRLRRYFVAFDGDLVQEFDMTSATHVLGSRDKNPAAQQVSPEWIWACIRKRRLVAPC
Regarding B1, the binding result in assay [1] is listed as “binds”.

B2: GDP-mannose 4,6-dehydratase (enzyme, UniProt O60547 1-372)
chain: MAHAPARCPSARGSGDGEMGKPRNVALITGITGQDGSYLAEFLLEKGYEVHGIVRRSSSFNTGRIEHLYKNPQAHIEGNMKLHYGDLTDSTCLVKIINEVKPTEIYNLGAQSHVKISFDLAEYTADVDGVGTLRLLDAVKTCGLINSVKFYQASTSELYGKVQEIPQKETTPFYPRSPYGAAKLYAYWIVVNFREAYNLFAVNGILFNHESPRRGANFVTRKISRSVAKIYLGQLECFSLGNLDAKRDWGHAKDYVEAMWLMLQNDEPEDFVIATGEVHSVREFVEKSFLHIGKTIVWEGKNENEVGRCKETGKVHVTVDLKYYRPTEVDFLQGDCTKAKQKLNWKPRVAFDELVREMVHADVELMRTNPNA
Regarding B2, the binding entry in assay [2] and in assay [3] was “binds” each time.
